The list shows a part of the results. Small differences around the control level are noise.
Compound: CN[C@@H]1C[C@H]2O[C@@](C)([C@@H]1OC)n1c3ccccc3c3c4c(c5c6ccccc6n2c5c31)C(=O)NC4 [staurosporine]
Assay: log2 fold change of tryptic peptide abundance, ligand vs vehicle (limited proteolysis) (log2 ratio); higher = more trypsin-susceptible (destabilized)
Conditions: ligand concentration: 20 uM; sample: mouse liver crude lysate; replicate design: treated separately

The chains behind the UniProt entries cited, without tags or fusion partners. Where a name states a change or a piece, a line headed by the entry shows the natural chain unless it says otherwise.
UniProt P16675: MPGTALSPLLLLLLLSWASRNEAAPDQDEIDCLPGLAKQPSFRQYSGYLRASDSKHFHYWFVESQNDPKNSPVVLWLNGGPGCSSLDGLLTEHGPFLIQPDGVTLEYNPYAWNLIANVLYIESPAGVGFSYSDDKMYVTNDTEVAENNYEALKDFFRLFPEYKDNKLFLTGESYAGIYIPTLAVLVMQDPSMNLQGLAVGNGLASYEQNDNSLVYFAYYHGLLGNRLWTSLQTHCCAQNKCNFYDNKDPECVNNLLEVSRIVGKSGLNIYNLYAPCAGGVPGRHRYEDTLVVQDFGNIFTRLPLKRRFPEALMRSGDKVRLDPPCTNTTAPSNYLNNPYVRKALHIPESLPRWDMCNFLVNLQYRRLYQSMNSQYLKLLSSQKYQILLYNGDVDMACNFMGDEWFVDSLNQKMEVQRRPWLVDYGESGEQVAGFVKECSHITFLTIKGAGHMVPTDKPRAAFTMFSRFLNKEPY
UniProt P26040, whole entry: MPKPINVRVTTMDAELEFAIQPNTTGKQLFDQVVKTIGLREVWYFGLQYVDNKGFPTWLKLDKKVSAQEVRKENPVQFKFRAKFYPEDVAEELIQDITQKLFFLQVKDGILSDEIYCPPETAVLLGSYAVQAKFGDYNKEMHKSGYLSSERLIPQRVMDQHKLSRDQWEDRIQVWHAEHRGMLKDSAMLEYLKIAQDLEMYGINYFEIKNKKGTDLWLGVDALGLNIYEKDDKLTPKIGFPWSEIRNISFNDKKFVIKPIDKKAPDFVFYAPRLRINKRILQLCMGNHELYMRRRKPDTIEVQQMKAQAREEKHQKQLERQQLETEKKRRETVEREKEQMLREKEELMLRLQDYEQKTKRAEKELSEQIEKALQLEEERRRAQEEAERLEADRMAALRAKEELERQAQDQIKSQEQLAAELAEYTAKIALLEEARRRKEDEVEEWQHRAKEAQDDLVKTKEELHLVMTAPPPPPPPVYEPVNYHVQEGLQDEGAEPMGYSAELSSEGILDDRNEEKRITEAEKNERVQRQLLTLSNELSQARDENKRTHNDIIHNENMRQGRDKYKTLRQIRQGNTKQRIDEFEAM
UniProt P16054: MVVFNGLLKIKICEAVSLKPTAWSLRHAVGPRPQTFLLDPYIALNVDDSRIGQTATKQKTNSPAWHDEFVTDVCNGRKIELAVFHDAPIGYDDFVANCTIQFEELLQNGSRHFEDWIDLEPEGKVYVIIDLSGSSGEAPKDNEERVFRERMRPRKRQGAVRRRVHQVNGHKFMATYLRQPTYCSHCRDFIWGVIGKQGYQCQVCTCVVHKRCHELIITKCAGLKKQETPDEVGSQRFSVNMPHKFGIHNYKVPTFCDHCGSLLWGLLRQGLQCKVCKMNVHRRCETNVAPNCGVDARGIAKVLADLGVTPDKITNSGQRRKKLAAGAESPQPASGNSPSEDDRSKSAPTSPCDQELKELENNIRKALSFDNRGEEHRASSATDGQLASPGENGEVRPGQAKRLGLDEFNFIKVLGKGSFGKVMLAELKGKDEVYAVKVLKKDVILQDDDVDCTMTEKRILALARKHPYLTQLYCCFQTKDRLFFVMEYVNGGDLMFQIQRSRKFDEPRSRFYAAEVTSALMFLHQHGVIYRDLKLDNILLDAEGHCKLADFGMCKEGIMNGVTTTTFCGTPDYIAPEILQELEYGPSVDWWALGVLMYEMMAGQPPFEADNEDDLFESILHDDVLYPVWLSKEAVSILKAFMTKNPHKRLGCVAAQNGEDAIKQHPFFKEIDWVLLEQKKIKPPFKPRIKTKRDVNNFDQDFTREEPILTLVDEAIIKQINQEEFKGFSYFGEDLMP
UniProt P31809: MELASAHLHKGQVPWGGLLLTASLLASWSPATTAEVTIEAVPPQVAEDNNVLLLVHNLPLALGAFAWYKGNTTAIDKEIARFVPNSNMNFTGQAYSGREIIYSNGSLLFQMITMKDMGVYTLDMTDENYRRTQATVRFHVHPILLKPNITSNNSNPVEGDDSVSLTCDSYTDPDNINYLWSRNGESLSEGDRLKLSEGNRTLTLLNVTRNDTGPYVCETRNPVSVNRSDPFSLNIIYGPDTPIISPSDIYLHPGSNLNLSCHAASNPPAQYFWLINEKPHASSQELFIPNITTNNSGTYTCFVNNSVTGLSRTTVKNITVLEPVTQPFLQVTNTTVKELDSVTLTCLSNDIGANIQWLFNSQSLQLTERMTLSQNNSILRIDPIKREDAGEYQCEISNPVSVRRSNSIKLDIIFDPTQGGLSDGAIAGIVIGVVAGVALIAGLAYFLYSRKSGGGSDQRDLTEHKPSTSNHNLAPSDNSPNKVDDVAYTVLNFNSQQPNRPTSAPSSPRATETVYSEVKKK
UniProt P17742, whole entry: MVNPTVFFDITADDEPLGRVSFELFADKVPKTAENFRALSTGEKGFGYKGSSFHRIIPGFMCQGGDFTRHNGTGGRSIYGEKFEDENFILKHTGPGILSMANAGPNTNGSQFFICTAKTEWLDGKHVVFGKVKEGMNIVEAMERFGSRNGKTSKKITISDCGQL
UniProt P28661: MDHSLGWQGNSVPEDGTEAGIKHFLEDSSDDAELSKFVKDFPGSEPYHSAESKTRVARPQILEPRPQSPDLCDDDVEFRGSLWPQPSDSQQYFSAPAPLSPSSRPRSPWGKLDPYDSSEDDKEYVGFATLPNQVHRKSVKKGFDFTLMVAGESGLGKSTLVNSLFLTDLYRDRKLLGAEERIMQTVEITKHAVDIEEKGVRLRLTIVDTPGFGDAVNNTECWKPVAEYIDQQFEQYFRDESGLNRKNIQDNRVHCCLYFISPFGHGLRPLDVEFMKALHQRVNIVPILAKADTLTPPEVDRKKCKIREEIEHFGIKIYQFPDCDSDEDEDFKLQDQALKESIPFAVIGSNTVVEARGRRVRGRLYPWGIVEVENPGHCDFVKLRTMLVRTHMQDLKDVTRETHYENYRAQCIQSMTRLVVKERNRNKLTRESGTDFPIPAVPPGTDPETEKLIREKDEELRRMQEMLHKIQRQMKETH
UniProt P16056: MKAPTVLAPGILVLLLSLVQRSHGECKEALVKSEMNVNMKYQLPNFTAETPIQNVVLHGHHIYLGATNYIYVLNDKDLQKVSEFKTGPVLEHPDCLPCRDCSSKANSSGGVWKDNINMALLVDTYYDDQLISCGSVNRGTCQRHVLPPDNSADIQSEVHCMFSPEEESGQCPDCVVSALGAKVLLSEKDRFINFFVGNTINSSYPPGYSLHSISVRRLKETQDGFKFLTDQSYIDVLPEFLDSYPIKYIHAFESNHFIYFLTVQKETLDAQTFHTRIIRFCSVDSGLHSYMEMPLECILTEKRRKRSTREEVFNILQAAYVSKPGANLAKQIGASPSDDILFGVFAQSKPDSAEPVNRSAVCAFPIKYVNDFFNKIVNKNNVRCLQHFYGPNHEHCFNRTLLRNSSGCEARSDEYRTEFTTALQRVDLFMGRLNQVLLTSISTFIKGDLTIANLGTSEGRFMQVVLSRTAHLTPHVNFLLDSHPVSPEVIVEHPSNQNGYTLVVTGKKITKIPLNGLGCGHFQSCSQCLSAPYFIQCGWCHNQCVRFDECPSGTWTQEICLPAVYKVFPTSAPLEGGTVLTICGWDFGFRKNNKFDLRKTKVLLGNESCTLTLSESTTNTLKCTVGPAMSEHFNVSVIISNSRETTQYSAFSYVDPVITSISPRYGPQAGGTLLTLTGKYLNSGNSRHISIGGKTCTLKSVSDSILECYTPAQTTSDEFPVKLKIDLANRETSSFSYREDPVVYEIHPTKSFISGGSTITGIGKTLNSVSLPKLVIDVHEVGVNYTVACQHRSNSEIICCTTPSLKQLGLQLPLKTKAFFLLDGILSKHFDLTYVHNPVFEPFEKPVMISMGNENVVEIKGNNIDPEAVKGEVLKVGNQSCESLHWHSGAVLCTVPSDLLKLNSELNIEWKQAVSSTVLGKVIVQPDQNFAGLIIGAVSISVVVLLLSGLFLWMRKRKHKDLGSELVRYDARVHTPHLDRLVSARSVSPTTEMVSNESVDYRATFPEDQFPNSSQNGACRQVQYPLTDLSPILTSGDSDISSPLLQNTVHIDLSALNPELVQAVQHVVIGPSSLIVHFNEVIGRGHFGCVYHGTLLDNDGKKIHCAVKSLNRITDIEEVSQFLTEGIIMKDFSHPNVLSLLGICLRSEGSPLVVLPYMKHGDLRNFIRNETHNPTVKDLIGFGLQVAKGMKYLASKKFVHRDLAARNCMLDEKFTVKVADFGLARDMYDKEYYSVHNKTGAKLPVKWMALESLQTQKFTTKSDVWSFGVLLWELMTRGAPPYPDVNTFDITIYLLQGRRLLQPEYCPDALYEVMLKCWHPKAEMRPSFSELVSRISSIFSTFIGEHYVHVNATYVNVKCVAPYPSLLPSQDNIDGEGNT
UniProt P21126: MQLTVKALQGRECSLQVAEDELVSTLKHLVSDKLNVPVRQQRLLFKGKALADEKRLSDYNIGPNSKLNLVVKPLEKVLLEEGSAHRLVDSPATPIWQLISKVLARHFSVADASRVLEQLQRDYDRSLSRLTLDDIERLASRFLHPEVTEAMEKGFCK
UniProt P22272: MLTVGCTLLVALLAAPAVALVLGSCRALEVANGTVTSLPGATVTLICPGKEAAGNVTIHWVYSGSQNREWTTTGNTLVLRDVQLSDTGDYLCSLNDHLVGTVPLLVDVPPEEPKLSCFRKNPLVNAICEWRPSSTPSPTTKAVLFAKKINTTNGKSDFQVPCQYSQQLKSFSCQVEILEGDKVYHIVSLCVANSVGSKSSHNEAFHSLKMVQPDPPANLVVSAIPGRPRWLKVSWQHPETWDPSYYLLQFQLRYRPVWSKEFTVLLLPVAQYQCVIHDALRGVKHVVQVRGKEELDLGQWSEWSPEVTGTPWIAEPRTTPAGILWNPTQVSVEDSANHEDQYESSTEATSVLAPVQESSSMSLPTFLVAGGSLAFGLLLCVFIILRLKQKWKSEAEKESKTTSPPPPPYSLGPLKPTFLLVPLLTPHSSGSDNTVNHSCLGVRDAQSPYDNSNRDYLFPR
UniProt P27889, whole entry: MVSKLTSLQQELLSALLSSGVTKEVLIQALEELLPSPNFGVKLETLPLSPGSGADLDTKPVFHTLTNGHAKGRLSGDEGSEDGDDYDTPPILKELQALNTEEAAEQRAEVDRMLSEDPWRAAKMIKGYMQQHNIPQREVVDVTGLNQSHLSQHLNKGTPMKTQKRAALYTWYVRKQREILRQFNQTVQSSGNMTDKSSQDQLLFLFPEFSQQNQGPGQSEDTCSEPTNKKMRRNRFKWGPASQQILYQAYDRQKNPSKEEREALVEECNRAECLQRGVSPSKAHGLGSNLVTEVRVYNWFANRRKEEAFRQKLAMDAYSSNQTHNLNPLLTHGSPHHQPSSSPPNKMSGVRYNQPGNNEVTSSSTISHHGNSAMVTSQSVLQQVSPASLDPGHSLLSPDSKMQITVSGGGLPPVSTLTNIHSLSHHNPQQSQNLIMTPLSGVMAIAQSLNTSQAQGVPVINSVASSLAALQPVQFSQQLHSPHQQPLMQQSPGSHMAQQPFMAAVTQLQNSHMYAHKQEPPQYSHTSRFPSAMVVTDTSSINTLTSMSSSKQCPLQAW
UniProt P26928: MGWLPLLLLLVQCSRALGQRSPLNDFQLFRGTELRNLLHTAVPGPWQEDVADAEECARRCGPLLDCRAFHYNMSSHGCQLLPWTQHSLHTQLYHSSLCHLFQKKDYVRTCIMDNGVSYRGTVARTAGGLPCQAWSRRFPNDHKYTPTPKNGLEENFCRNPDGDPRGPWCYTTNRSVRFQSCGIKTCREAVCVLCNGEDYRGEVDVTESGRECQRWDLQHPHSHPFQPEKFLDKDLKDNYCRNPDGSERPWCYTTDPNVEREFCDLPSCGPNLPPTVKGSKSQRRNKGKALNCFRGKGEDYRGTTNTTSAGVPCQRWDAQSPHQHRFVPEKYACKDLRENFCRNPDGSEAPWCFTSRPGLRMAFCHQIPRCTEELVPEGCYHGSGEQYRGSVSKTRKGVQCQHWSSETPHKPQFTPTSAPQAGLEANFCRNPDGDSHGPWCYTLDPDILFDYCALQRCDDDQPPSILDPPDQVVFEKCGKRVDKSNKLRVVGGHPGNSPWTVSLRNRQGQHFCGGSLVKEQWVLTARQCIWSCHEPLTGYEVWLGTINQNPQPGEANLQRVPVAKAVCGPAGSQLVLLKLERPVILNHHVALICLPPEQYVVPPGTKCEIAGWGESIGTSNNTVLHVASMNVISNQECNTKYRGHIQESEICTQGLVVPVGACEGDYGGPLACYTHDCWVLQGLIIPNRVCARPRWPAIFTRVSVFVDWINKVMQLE

Target | log2 fold change
UniProt P16675 (peptide sequence: GAGHMVPTDKPR, peptide start residue: 448) | 0.155
UniProt P26040 (peptide sequence: ITEAEKNER, peptide start residue: 518) | -0.508
UniProt P16054 (peptide sequence: SAPTSPCDQELK, peptide start residue: 346) | -0.275
UniProt P31809 (peptide sequence: ATETVYSEVK, peptide start residue: 509) | -0.0817
UniProt P17742 (peptide sequence: EGMNIVEAMER, peptide start residue: 134) | 0.284
UniProt P28661 (peptide sequence: AQCIQSMTR, peptide start residue: 409) | -0.175
UniProt P16056 (peptide sequence: WMALESLQTQK, peptide start residue: 1247) | -0.323
UniProt P21126 (peptide sequence: LSDYNIGPNSK, peptide start residue: 56) | -0.41
UniProt P22272 (peptide sequence: DAQSPYDNSNR, peptide start residue: 444) | -0.159
UniProt P27889 (peptide sequence: EALVEECNRAECLQR, peptide start residue: 262) | -0.0926
UniProt P26928 (peptide sequence: WDAQSPHQHR, peptide start residue: 316) | -0.375

Quoted from the entries so far (2 entries):
Target | log2 fold change
UniProt P16675 (peptide sequence: GAGHMVPTDKPR, peptide start residue: 448) | 0.155
UniProt P26040 (peptide sequence: ITEAEKNER, peptide start residue: 518) | -0.508
